These are yes or no findings as the source states them, for the method shown. In cells and extracts the contact can be indirect. Some entries that bind do so weakly or less than the wild type.
Biological target: RAGE in HEK293T cell lysates (pull-down assay) (UniProt Q15109)
Assay: Ni-NTA pull-down of RAGE from HEK293T cell lysates with His-tau, quantified immunoblot

Sequences of proteins named here, by UniProt entry; tags and fusion partners are left off. A change or cut given only in a name is not applied to a line headed by its entry. A line that says so, or that is headed by a name, gives the form on record, which may keep a tag or linker. Residues count along the entry.
UniProt Q15109, residues 23-404: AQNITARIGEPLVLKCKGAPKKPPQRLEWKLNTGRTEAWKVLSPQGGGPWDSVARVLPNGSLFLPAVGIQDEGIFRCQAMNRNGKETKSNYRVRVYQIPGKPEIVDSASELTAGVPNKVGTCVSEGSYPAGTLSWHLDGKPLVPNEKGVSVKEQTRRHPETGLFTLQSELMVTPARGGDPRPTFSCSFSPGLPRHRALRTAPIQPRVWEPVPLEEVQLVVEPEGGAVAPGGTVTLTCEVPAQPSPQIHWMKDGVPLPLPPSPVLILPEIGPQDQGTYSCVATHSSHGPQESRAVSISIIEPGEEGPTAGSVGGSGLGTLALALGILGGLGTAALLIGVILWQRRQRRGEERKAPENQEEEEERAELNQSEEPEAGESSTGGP
tau fibrils of 6xHis tagged human 0N4R tau (P10636, form named): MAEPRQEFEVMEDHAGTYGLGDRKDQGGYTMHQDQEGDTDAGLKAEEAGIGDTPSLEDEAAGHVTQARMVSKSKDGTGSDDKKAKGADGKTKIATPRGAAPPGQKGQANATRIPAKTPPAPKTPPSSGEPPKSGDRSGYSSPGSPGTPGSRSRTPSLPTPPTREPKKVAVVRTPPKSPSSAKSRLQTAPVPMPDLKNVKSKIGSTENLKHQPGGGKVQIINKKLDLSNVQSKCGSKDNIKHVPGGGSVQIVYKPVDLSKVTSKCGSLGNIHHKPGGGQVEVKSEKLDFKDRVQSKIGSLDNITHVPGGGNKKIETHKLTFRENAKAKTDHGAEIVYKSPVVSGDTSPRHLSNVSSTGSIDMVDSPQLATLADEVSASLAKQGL

binding: binds
Substance: tau fibrils of 6xHis tagged human 0N4R tau (from UniProt P10636 1-383) (ligand)

Source: patent publication US20250389714A1, “PHARMACEUTICAL COMPOSITION FOR TREATING DISEASES RELATED TO TAUOPATHY” (SEOUL NATIONAL UNIVERSITY R&DB FOUNDATION, priority 2021, published 2025)
